From PubChem BioAssay AID1508600 (Functional Genomics Laboratory (NCATS/FGL), 2020)
Hit rate of the full screen: of about 53,000 sequences, about 3,700 (7%) were called active.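 How the source made its calls: active means gene knockdowns whose robust z-score for IL-1 alpha signal is at least 2 or at most -2, so actives lie on both sides; inactive means the rest.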 This is one part of the list.

assay: Components of the Cytosolic LPS Sensing Pathway: Gene Identification via Genome-wide siRNA Screen; conditions: RAW264.7 macrophages, IL-1a HTRF, actives lie on both sides, screened at 100 nM (by protocol), cells primed 5 h with Pam3CSK4 first;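 further: robust z of the log signal after scaling to non-targeting control siRNA wells of the plate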
How it was run: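 Mouse macrophage line RAW264.7 is transfected with siRNA (100 nM final), grown 48h, primed with TLR ligand Pam3CSK4 5 h and given intracellular LipidA 24 h. IL-1a in supernatant is read by HTRF and viability by luminescence.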

Sequence	z-score
GGCCAGUGAUGCUGUAGUUTT against Sema6c	inactive: -0.902
GGAAUCAGGAAUGCUACUUTT against Tsr1	inactive: 0.216
GGCAGCAUAGACUCUGACATT against Rag2	inactive: -1.35
GGCUGGGAAUUUUACAGUATT against Gpr3	active: 3.98
GGAUCGAAGUAGAAUGUAUTT against Cpeb2	inactive: -0.668
GGAACAGAAGGGUAAAGGGTT against Gkn1	inactive: 0.701
GCUCCUUUGGUUCAACAUCTT against Olfr635	inactive: -1.78
GGAAAAACAAAUUCAGCAUTT against Zfp280c	inactive: 1.82
CCAUCGGGAUUGACUAUGGTT against Dnajc27	inactive: -0.878
GGAUAUAGGUGUGAUCUAGTT against Mxra7	inactive: 0.9
GCUGCUUACUAUCAGAAAATT against Stx12	inactive: 0.137
GCCUCAAAACUUCUUGUUCTT against Mxd3	inactive: 0.0291
GGAGUGUUGCCAGUUCCUATT against Tctn2	inactive: -0.434
GCGGACGAGUCUCUGUUAGTT against Yae1d1	inactive: -0.573
GGGCAAUCUGCUAUUCUCUTT against Pheta2	inactive: 0.18
GGAGAGGAGAAAGUACCGUTT against Fcgbp	inactive: 1
GGUACCUUGCCUGACAAACTT against Ids	inactive: 0.112
GGCUCAAGGUUUUCUCUACTT against Olfr710	inactive: -0.0341
GCCUAUCGUCCAGAUUAUCTT against Senp1	inactive: 0.919
CCUACACUUCCUUUUAUAGTT against Gapt	inactive: 0.146
GGUCAUAAGCUAUUCCUGUTT against Vmn1r177	inactive: -1.01
GGAUAUUGAACACUUCUUGTT against Strip2	inactive: 1.04

Sequence	z-score
GGAAUACCUCCACCUAUGGTT against Tcerg1	inactive: -1.33
CCUACAUCCUCCAUAGAAUTT against Gm5600	inactive: 0.456
CGGGUCAAUUUGAAUGCAUTT against Svep1	inactive: -1.45
GGACCAUAUGGACACAAAGTT against Col10a1	inactive: 0.715
GGACUCUCUUCUGGCAUCUTT against Nkx3-2	inactive: 1.04
GCUGGUGAUCGUAGCCAAGTT against Mydgf	inactive: 0.256
GGAGCGAAUCUUAAAGAACTT against Gspt1	inactive: 0.401
GGAGCUGUUUCAGGUAUCUTT against Tcam1	inactive: -1.03
GGGAAGAAAAUCAAACUCATT against Fabp1	inactive: 0.504
GGCUGUGCGUGUUACAAAATT against Erlin1	inactive: 0.501
CCUAUUCAUCAUAACUCAUTT against Tdo2	inactive: 0.129
CCUGAAGCUUUUGAUCCUATT against Exoc5	inactive: 0.179
GGUCGAAAUGAUCUCCAACTT against Poli	inactive: -0.687
CGGCAAUGUGACUAACAUCTT against Nrros	inactive: 0.76
GGAGGCUCUACUUUUGUAGTT against Olfr611	active: -2.16
GGAGAACAUGGAGACUAUUTT against Ramp1	inactive: -0.756
GGAUCCUAGCCUUUUAUCATT against Cep70	inactive: -1.11
GGGAAAAAGAAAAGGAAAATT against Dhx15	inactive: -0.918
CCAGACUCCUCUUAGAAGGTT against Ankrd34c	inactive: 0.73
GGAGAACUUCCUAUACUAUTT against Apobec2	inactive: 0.448
GGUAAAACAGAGGAGUCGGTT against Scaf1	inactive: -0.444
GGAUACUCACUGCACAAGGTT against Slc9a8	inactive: 0.804

2 consecutive entries out of the list so far, quoted:
Sequence	z-score
GGAGAACAUGGAGACUAUUTT against Ramp1	inactive: -0.756
GGAUCCUAGCCUUUUAUCATT against Cep70	inactive: -1.11

Next records:

Sequence	z-score
GGACCCAGUUUUCCCUUGATT against Insig2	inactive: -1.43
GGUGGUAUCCCUAAAGGUGTT against Pus1	inactive: -0.952
GGCUGAGAUAAUCACAUUUTT against Moxd2	inactive: 1.88
GGAGACUUUCCAUUUGAAGTT against Fnbp1l	inactive: -0.188
GCUCCUUAGACUCCACUCATT against Ccdc33	inactive: 1.79
CUGAGGUCUCUCAUUACCATT against Olfr69	inactive: -1.46
GGUGAAAUGGAUCGUCCUCTT against Nme8	inactive: -0.926
CCUAAAAUCCUAGACCUUUTT against Pank1	inactive: 1.24
GGCAAAUUAUUAGUACAGUTT against Gabpa	inactive: 1.41
GCACUAGGCGAGUUGUCAUTT against Rnase4	inactive: -1.7
GGAGCUGAUGGAAGAGAUCTT against Speer4f1	inactive: -1.49
GUCUUUGUUUUGUUGCUUGTT against Olfr1232	inactive: 0.305
GGUGUAGAUGGAUUUCAUUTT against Kcmf1	inactive: 1.3
GCAUGAUUACCCAUUUCAATT against Tax1bp1	inactive: 0.334
GCAUGUUUUCCACAUGUCCTT against Vmn1r239-ps	inactive: 0.197
GGAAAGAGUCAUAAUUGAUTT against Adarb2	inactive: -0.406
GGAAUUCCACGGUAUUCACTT against Dcaf12l2	inactive: 1.46
GGAUUUCAUUGGGUUUCUUTT against Apmap	inactive: -1.13
GGUAGCACAUUCGGAUAAATT against Vapa	inactive: -1.1
GGUUAUCAGAAAUGUGUCCTT against Chrnb3	inactive: -1.12
CCUUUAACUUUCUCCUACCTT against Nfkbid	active: 3.45
GGACGAUGGACCCUAAAAGTT against Iqca1l	inactive: 0.369

Reformatted bar-delimited: part of the list above.
Sequence | z-score
GGAGCGAAUCUUAAAGAACTT against Gspt1 | inactive: 0.401
GGUAAAACAGAGGAGUCGGTT against Scaf1 | inactive: -0.444
GGACCCAGUUUUCCCUUGATT against Insig2 | inactive: -1.43

The results go on.

Sequence	z-score
GGAACUGAACAAGAUUUCUTT against 1700129C05Rik	inactive: 1.84
GGACGGGAUACUUUAAAGATT against Sem1	inactive: 0.654
GGAUUCAAGUUCUCACCGATT against Serpina6	inactive: -0.462
GCGCAAACUUUAAUAACACTT against Zkscan1	inactive: 0.604
GCUCACCUUCAGGUAAGCGTT against Leo1	inactive: -1.28
GCAACCACUGUGGUGAUUGTT against Neurl3	inactive: -0.515
GCCUCCUUUAUGUAGCUUATT against Cdca3	inactive: 1.76
GGUGCUGAUGGAGAACUUCTT against Ruvbl1	inactive: -1.55
GCCGUGAAAUACAGCGUAATT against Exoc3l	inactive: 0.546
GGUGUCUUUCUUCACUCUUTT against Olfr862	inactive: 0.225
CCAUGACUAUUCUUACUUCTT against Olfr937	inactive: -0.32
CCAAAACGGAAUCCUAAUATT against Nyap2	inactive: -1.34
GGUUCAUGUGAACUUGCUGTT against Sesn2	inactive: -1.99
GGAUGUAUGUGCCAAGAUCTT against Rd3	inactive: -0.759
GCCAACUAUCUUUUCUUAGTT against Ppp1cb	inactive: 0.136
GGGAAGAAUUCAGAAAAACTT against Cmc1	inactive: -1.39
CCAUAUUGAGGAAAAAUCCTT against Zfp788	inactive: -1.31
CCUUAUGCAUGACUUGAGUTT against Exoc4	inactive: -0.2
GCUUCUGUUCGUUACGUCCTT against Ndufc2	active: 2.55
GGUGCUUCUGAGCAAGAAUTT against Adra2b	inactive: -1.26
GGACUUAAAACAGAAAGCATT against Haus1	active: -2.79
GCCGUCAUCACUGAAUUCATT against Olfr242	inactive: 0.239

Sequence	z-score
GGAAAAAAGGAAUUGACUUTT against Nebl	inactive: 1.65
GCACACCGUUUACCCUACCTT against Gapt	inactive: -1.32
GGUCUUUCAAAUACCCAAATT against Rcor2	inactive: 0.638
CCCAGAAGACCCGAACUUUTT against E130006D01Rik	inactive: 0.378
GGGAUGAGUUCUCCUACCATT against Srm	inactive: -1.51
GCAAGGUGUAGAUUUUACATT against Nrep	inactive: 0.954
CCACUUGUACGCACUCAAGTT against Ang4	inactive: 0.406
GCACAAUUAGACUUCUUCCTT against Vat1	inactive: -0.093
GGACCUGGUGGAGAACAAGTT against Kcnj12	inactive: 1.64
GGUCAUCGAGACUCAGGAUTT against Ihh	inactive: 1.4
GCACUUCCGACUUUUUCACTT against Mettl24	inactive: -1.69
CGGACAAGAUAAAGUGUGUTT against Lypd9	inactive: -1.07
GCGCAGUUGCAAACCACACTT against Clec4g	inactive: 0.778
GCGGCUUUAUUCACACUUUTT against Ufsp1	inactive: 0.272
GGGCGGAGCAUUUUUCUUGTT against Ube2d2b	inactive: 0.483
GCGACAUCUGGAAAAAUACTT against Atp2a1	inactive: -0.406
GGACAAGGAUGCAAUUAUCTT against Hoatz	inactive: -1.7
GCAAGGUGUGGAAUGACCUTT against Snx8	inactive: -1.33
CCUAUGUACCCACUGAAAUTT against Tmem63c	inactive: -1.6

Retrieved one by one from above, 2 records:
Sequence	z-score
GCGCAGUUGCAAACCACACTT against Clec4g	inactive: 0.778
GGACCUGGUGGAGAACAAGTT against Kcnj12	inactive: 1.64
